From the supplement of paper PMC3334620
Over roughly 33,000 sequences, “E-score (-0.5 to 0.5)” has its median near -0.0014; the highest 2% begin near 0.25. Some of the results follow.

target: T1, Cad1 (UniProt P24813); assay: PBM E-score (8-mer binding enrichment) (E-score (-0.5 to 0.5)); higher = stronger / more preferred TF binding; conditions: protein concentration: 100 nM; construct: GST-full length
T1 sequence: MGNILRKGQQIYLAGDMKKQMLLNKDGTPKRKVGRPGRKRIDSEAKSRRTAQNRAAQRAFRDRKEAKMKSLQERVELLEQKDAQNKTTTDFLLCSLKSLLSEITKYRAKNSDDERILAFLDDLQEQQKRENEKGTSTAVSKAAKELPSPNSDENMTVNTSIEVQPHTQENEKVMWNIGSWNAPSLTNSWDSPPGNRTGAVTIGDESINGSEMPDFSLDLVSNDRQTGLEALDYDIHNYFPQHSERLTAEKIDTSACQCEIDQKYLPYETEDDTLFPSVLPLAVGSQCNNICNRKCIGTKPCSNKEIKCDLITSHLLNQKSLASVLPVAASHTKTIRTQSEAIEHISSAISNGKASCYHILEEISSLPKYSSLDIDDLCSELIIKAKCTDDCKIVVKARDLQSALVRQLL
Method: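 Universal 'all 10-mer' protein binding microarrays (Agilent AMADID 015681) probed with GST-tagged S. cerevisiae TFs (full-length or DBD) made by in vitro transcription/translation (PURExpress), about 100-200 nM. Bound TF was detected with fluorescent anti-GST. Each ungapped 8-mer (which stands for itself and its reverse complement) is scored by the PBM enrichment score (E-score), a modified Wilcoxon-Mann-Whitney statistic from -0.5 to +0.5, computed with the Universal PBM Analysis Suite. Scale: above 0.35 generally sequence-specific binding.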

Sequence	PBM E-score
GCGGGAAC	-0.0403
AACCTCCA	-0.336
GACTGCGA	-0.0379
GATGGTGA	-0.037
CCCACCAC	-0.0583
ATCTACCA	0.165
ACCGCCTG	-0.142
GAGTGACA	0.0819
GAGGACTA	-0.214
CTAACGTC	0.149
CACGAACG	-0.0325
CGCTGGAG	-0.0413
ATGCCTAA	-0.098
AAGAAGCG	-0.184
CGATTCAC	-0.0442
AACTGGAC	-0.0124
ATACGCAA	0.119
ACTGGGGA	-0.315
AGTCTTGA	-0.0713
AGGACACG	-0.0325
AATTATCA	0.266
CCGGGCTC	-0.228
ACGCCAAG	-0.356
GAACGAGC	0.115
AGGGTCGC	-0.0644

Two successive records out of the list so far:
Sequence	PBM E-score
ATCTACCA	0.165
ACCGCCTG	-0.142

Laid out differently: entries from further up.
GATGGTGA
  PBM E-score = -0.037
CCCACCAC
  PBM E-score = -0.0583

The listing continues:

Sequence	PBM E-score
AATAAGCA	0.343
AACGAAAA	-0.0169
AACGAGAA	0.0567
CTTACGTA	0.328
CTAACTCC	-0.111
TTATCGAA	0.155
ATCGTAGA	-0.1
TAGTCGGA	0.0309
ATAAGAAA	0.209
ACTAACCG	0.0149
ACCCGAGT	0.0829
TACCTACA	0.0916
AACTTTCC	-0.0412
ACTCGGGC	0.11
ATGATGTA	0.182
AGCACATA	0.088
ATTTCCCC	-0.0772
GATGCACA	-0.038
GTTGTCGA	0.00061
GGTATTTA	0.0493
AAAAGAAG	0.0683
ACGGACCG	-0.145
GAACTTGA	0.152
ATGCTTTC	0.0666
CTAACCGC	-0.194

Sequence	PBM E-score
CCGGAGAG	-0.126
AGGTGGTG	-0.0647
GATGATCC	-0.0883
CTATAGAA	-0.0852
CGTAGGAA	0.0214
ACAGCCGT	-0.0158
AGACCTGG	-0.0269
TCATTAGA	0.0948
TCGCGCCA	-0.0488
ATTACTAC	0.0954
ATTAGCAG	0.0216
AGTTTCGA	-0.0561
CCATTGGC	-0.116
CGGCTCGA	0.198
ATGGATGG	-0.125
TCTAGTAA	0.169
CATCCTGG	0.155
ATTACCGG	0.0189
GCTAGCGA	-0.0733
ACGGAGAC	0.128
GATTAACA	0.163
ACAAAGCG	0.168
GGCGTATA	-0.292
ACCGAACC	-0.24
ATGCTAGA	0.0246

Sequence	PBM E-score
AAGTTATA	-0.0658
AAGGCTTG	-0.0928
CAACGTAC	-0.00969
CCCTCTTA	-0.0705
ACGCATGC	0.283
CGATAGCG	0.0571
CCAGCGGA	-0.25
ACTAAATA	0.233
AACATAGC	0.0961
GCATAGGC	-0.0745
CACATCCA	0.0306
AGGGGTAT	-0.247
CTATAATA	-0.101
CAAGCATA	-0.0515
GTCGCGGA	-0.035
GGATGTTA	-0.0262
CTCGGAAA	0.0234
CTTGCAGA	-0.0336
CCAAATAC	0.013
ACAACACT	0.189
ACGCCGTA	0.0685
AATTAGCT	0.0885
GCCCCCCC	-0.418
GATATTCA	0.0631
CTGCGGAA	-0.0934

Sequence	PBM E-score
AGCGCGAA	0.21
TATTGACA	-0.0118
ACGGATAT	0.254
CCAGGTCC	-0.273
TCCTTGAA	-0.0701
AGGGTTCG	-0.155
AACACCGT	-0.0022
GACCAGCA	-0.00129
CTCTCACC	0.015
ACAGCCCT	-0.124
CGACATCG	-0.0602
GTTATCTA	0.00907
ACCGGTTA	0.0602
ACATTAAG	0.151
CCCGCCGA	-0.0624
ATAATCGC	0.19
GTTGGGTA	0.0987
GGAGGCTA	-0.166
CCCAAGGC	-0.155
GTGTTATA	0.141
CCAAAAAG	0.0477
AATTTTAC	0.282
ACCACGGG	-0.22
AGCTGGTG	0.0411
CATTTAGG	-0.158

Five entries picked at random from those above:
Sequence	PBM E-score
AATTTTAC	0.282
AGCGCGAA	0.21
GACCAGCA	-0.00129
CCAGGTCC	-0.273
ACAGCCCT	-0.124

Next part:

Sequence	PBM E-score
CATGGCGG	-0.0395
ATACAGAA	0.177
CCGTGGCG	4e-05
CCTTAAAG	0.0425
GATTATGA	0.0726
CAAGTTCA	0.101
CGCGGCTC	0.0226
CCGTTCGA	0.118
CTGCAGAA	0.15
GCTTCGGA	0.0206
AACCACGA	0.00513
CAGATGCA	-0.138
CTTGCAAA	0.105
GAATTGTA	0.0474
AGAAACAA	0.0992
CATAACCC	-0.14
ACTGACGA	-0.00793
AGATACTC	-0.0492
GCTGCCAC	0.0283
AAGGACAT	0.0161
GAAAAATA	0.115
AGTCTCCG	0.18
GCAGTGTA	0.0475
GAGTACTC	0.0795
ACAGGCCG	0.106

Sequence	PBM E-score
AACACTCA	0.0112
AGGAGCCA	-0.237
TGGTGGAA	-0.0705
GATCGGCC	-0.00782
GTATGCAC	0.0448
CACTTTTC	0.0171
CCGCCGCG	-0.0716
ATCCTTTG	0.0844
ACCTTTTA	-0.254
ATGCCCGG	-0.0917
AAAATCCT	-0.0176
CCTGGATA	-0.172
CGTCAACG	-0.0333
ACCAGCTC	0.0456
GATTGTGC	-0.0437
TCGGTAAA	0.0454
CCTGCCGC	-0.0972
ACATCGCG	0.1
TAAGTTAA	0.17
CACTGCAG	0.0201
CCTAGACG	-0.00053
CTAATTTA	0.199
ATGGCGTG	0.172
AGATTCGC	0.04
ATACCACG	0.0689

Sequence	PBM E-score
CACTTTAA	0.214
CGTGTACA	0.134
GTAAAAGA	0.0487
CGAAGCAG	-0.126
AACCAGTG	-0.0556
TTCCTCAA	-0.0277
ACAGCTGG	0.0155
ACCAAAGT	-0.0716
GAACCTTC	0.0886
GAAAGCGC	0.0651
AGAAATGG	-0.0803
ATGATGTC	0.0748
ACTGAAAT	0.0771
CCCTCAGG	-0.16
AGTTACTG	-0.0194
CACAAGGC	-0.0672
CAGGAGTC	-0.0614
CCTGGCTA	-0.154
TGAGCTCA	0.0486
CATCAACA	0.215
CACATGTG	0.105
AGACTGGA	-0.204
AATGTCCG	0.152
GCGTGACC	-0.025
GAATATTC	0.338

Sequence	PBM E-score
GACCTGCC	-0.117
CGGTAAAA	0.221
CACTAACG	-0.101
CCTTCCTC	-0.283
CAATCTAG	0.0757
CAACCGGA	0.0544
AAGCCCAA	-0.0469
CACAGAGA	0.0726
AACGTGGC	0.0123
AGTATTAC	0.182
ACTCGGGA	0.0987
CGATCCGC	0.163
AAATCGCC	-0.00222
CAATCAAG	0.0519
CACAGTTA	0.0697
ATGTAGAA	-0.0904
CGAAAAGA	0.28
GTTGTAGA	0.015
CGTTGCTC	-0.0706
